Measured values published in PubChem BioAssay AID2685 (National Center for Advancing Translational Sciences (NCATS), 2010).
Some of the results follow. Shown are side measurements of this screen, not its main read-out; they come without a call. Compounds called inactive in the main read-out are mostly missing here. The note in brackets gives the kind of curve behind each potency; many fits are weak.

Experiment: qHTS Assay for Lipid Storage Modulators in Drosophila S3 Cells;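 for cell number change: cells counted by Cell Tracker Red CMTPX staining in the red channel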
Details: BODIPY lipid droplet fluorescence, 18-24 h; for cell number change: measured here: cell count max response, cells fed with added oleic acid
How it was run: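 Drosophila S3 cells got compounds at several concentrations plus oleic acid (400 uM solution). Laser-scanning cytometry with 488 nm excitation read lipid droplets at 500-530 nm and cells at 575-640 nm. Percent activity was relative to 20 uM Triacsin C.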

[1] = measured here: lipid fluorescence (Fed channel) AC50, cells fed with added oleic acid
[2] = measured here: cell number channel AC50, cells fed with added oleic acid

Structure (SMILES) | cell number change | AC50 [1] | AC50 [2]
CC1=C(C(N)=O)C(c2ccccc2)n2nc(-c3cccc(C)c3)nc2N1 (stereo unspecified) | -3.87% | 0.13 µM [rising, full curve] | –
Cc1ccc(O)c(-c2cc(C(=O)Nc3ccc(S(=O)(=O)N4CC(C)OC(C)C4)cc3)[nH]n2)c1 (stereo unspecified) | -83.4% | – | 29.1 µM [falling, single point]
COc1ccc(CC(CC(=O)O)C(=O)Nc2ccccc2)cc1 (stereo unspecified) | 7.11% | 29.1 µM [rising, single point] | –
Cc1ccc(-n2ncc3c2CCCC3NC(=O)c2ccoc2)cc1C (stereo unspecified) | -64.6% | 0.0891 µM [falling, full curve] | 0.0794 µM [falling, full curve, poor fit]
CCCNC(=O)C(Cc1cccc(Cl)c1)NC(=O)c1ccc(C#N)cc1 (stereo unspecified) | -2.05% | – | –
Cc1cccc(N2CCN(S(=O)(=O)c3c(C)nc4scc(C)n4c3=O)CC2C)c1 (stereo unspecified) | -34.9% | – | 32.6 µM [falling, single point]
CSc1ccc(/C=C/C(=O)OCC(=O)N2CCN(S(=O)(=O)c3ccc(C)cc3C)CC2)cc1 | -17% | 0.0731 µM [falling, full curve, poor fit] | 0.164 µM [falling, full curve, poor fit]
O=C(COC(=O)Cn1cnc2ccccc21)NCCc1ccc(Cl)cc1 | – | 6.51 µM [falling, full curve] | –
O=C(CN(Cc1ccc(F)cc1)C(=O)c1csnn1)NCc1ccc2c(c1)OCO2 | 30.9% | – | 32.6 µM [rising, single point]
O=C(NNC(=O)C12CC3CC(CC(C3)C1)C2)c1cccc(O)c1 | 14.5% | 6.51 µM [rising, single point] | –
CCOC(=O)N1CCN(C(=O)c2ccccc2NC(=O)c2ccc(Br)cc2)CC1 | -4.72% | 0.259 µM [falling, full curve, poor fit] | –
CC(C)(C)C(=O)N1CCN(c2ccc([N+](=O)[O-])c(-n3nc(-c4ccccc4)c4ccccc4c3=O)c2)CC1 | 24% | 10.3 µM [rising, partial curve, poor fit] | –
N#CCCN1CCN(Cc2ccccc2)CCC1=O | 30.5% | 6.51 µM [rising, partial curve] | –
Cc1cccc(NC(=O)CSCC(=O)N2CCCc3ccccc32)c1 | – | 2.31 µM [falling, partial curve] | 0.184 µM [rising, full curve, poor fit]
CC1CCN(S(=O)(=O)c2ccc3[nH]c(=O)cc(C(=O)O)c3c2)CC1 | -181% | 0.291 µM [falling, full curve, poor fit] | 25.9 µM [falling, partial curve]
COc1ccc(CN2CCN(C(=O)c3ccc(S(=O)(=O)N4CCCCCC4)cc3)CC2)cc1F | 55.4% | – | 16.4 µM [rising, single point]
Brc1ccccc1C1Nc2cccc3cccc(c23)N1 | -10.4% | 29.1 µM [falling, single point] | –
CCN(CC)c1ccc(NC(=O)c2ccc(=O)[nH]c2)cc1S(=O)(=O)Nc1ccc(OC)cc1 | – | 6.51 µM [rising, single point] | –
COC(=O)c1ccc(C(=O)OC)c(NC(=O)CN2CCN(c3ccccc3)CC2)c1 | 0.503% | 23.1 µM [rising, partial curve] | 0.411 µM [rising, single point]

Structure (SMILES) | cell number change | AC50 [1] | AC50 [2]
Cc1ccc(C)c(N2CCN(C(=O)Cn3c(=O)oc4cc(S(=O)(=O)N5CCCC5)ccc43)CC2)c1 | -5.39% | 6.51 µM [rising, single point] | –
CC(/C=N/NC(=O)c1nnn(-c2nonc2N)c1C(C)C)=C\c1ccccc1 | 7.65% | 23.1 µM [falling, single point] | 0.0731 µM [rising, full curve, poor fit]
O=C(CC1CCCC1)N1CCN(S(=O)(=O)c2ccc(F)cc2)CC1 | -10.6% | 6.51 µM [rising, single point] | 6.51 µM [rising, single point]
CC(=O)Oc1c(C)c(OC(C)=O)c2c(c1C(C)=O)OC1CC(=O)C(C(C)=O)=C(O)C21C (stereo unspecified) | – | 0.0184 µM [rising, full curve, poor fit] | –
Cc1cc(C)nc(NNS(=O)(=O)c2ccc(F)c(Cl)c2)n1 | 68% | – | 14.6 µM [rising, partial curve]
O=C(Nc1ccc(Cl)cc1C(=O)N1CCOCC1)c1cccc([N+](=O)[O-])c1 | 64.6% | – | 0.058 µM [rising, full curve]
O=C(CSc1ccc(Cl)cc1)NC1=NN(c2ccccc2)C(=O)C1 | 17.2% | – | –
CC(C)NC(=O)c1ccc2c(c1)nnn2C | – | 0.0326 µM [falling, full curve, poor fit] | –
Cc1cccc(NC(=O)CSc2nc(C)nc3c2c(=O)n(C)c(=O)n3C)c1 | 14.2% | 23.1 µM [rising, single point] | –
O=C(CSc1nnc(C2CC2)n1-c1ccccc1)NCCc1ccc(F)cc1 | 52.2% | – | 6.51 µM [rising, partial curve]
CN1CCN(CCc2nc3cc(NC(=O)COc4ccc(Cl)cc4)ccc3n2C)CC1 | 11.5% | 29.1 µM [rising, single point] | –
O=C(C1CCN(c2nnc(-n3cccc3)s2)CC1)N1CCOCC1 | -81.2% | 0.291 µM [falling, partial curve, poor fit] | 29.1 µM [falling, partial curve, poor fit]
CCOC(=O)N1CCN(C(=O)COc2ccc(Br)cc2)CC1 | -3.04% | 5.17 µM [rising, partial curve] | –
COc1ccc(C(=O)NC=C2C(=O)OC(C)(C)OC2=O)cc1 | -18.6% | 0.146 µM [falling, full curve, poor fit] | –
CC(C)c1ccc(N(CC(=O)NC2CCCCC2)C(=O)CNC(=O)c2ccco2)cc1 | 5.22% | 29.1 µM [falling, single point] | –
CCOc1cc(CNC(C)(C)CO)cc(Br)c1OCc1ccc(Cl)cc1Cl | -38.6% | 29.1 µM [falling, single point] | 23.1 µM [falling, partial curve]
CCN1C(c2ccccc2)C(C)C(=O)C(C)C1c1ccccc1 (stereo unspecified) | 39.6% | – | 9.2 µM [rising, partial curve]
COc1ccc(C(C)NC(=S)NCc2ccc(F)cc2)cc1 (stereo unspecified) | -18.8% | – | –
Cc1ccc(S(=O)(=O)N2CCN(C(=O)C3Cc4ccccc4CN3C(=O)c3ccco3)CC2)cc1 (stereo unspecified) | -23.5% | 6.51 µM [falling, partial curve, poor fit] | –

Among those listed so far, 2 contain two or more sulfur atoms:
Structure (SMILES) | cell number change | AC50 [1] | AC50 [2]
Cc1cccc(N2CCN(S(=O)(=O)c3c(C)nc4scc(C)n4c3=O)CC2C)c1 (stereo unspecified) | -34.9% | – | 32.6 µM [falling, single point]
CSc1ccc(/C=C/C(=O)OCC(=O)N2CCN(S(=O)(=O)c3ccc(C)cc3C)CC2)cc1 | -17% | 0.0731 µM [falling, full curve, poor fit] | 0.164 µM [falling, full curve, poor fit]

The list continues.

Structure (SMILES) | cell number change | AC50 [1] | AC50 [2]
Cc1noc(C)c1CSc1nnc(-c2ccccc2F)n1CCc1ccccc1 | -14.7% | – | –
Cc1cc(C)c(S(C)(=O)=O)c(N(C)NC(=O)c2c(F)cccc2F)n1 | -22.4% | – | 0.517 µM [rising, single point]
CCOc1ccc2oc(-c3ccccc3)c(C(=O)N3CCN(CCO)CC3)c2c1 | – | – | 6.51 µM [rising, single point]
COc1ccc(N2CCN(C(CNC(=O)c3ccco3)c3ccco3)CC2)cc1 (stereo unspecified) | – | 2.31 µM [rising, single point] | –
Cc1ccc(C(=O)Nc2cccc(C(F)(F)F)c2)cc1Nc1ccccn1 | -46.8% | 29.1 µM [falling, single point] | 20.6 µM [falling, partial curve, poor fit]
CC(=O)c1cccc(NC(=S)N2CCN(S(=O)(=O)c3ccccc3)CC2)c1 | 9.48% | 4.61 µM [rising, single point] | –
CCOC(=O)CCC(NC(=O)CCC(=O)NC(CCC(=O)OCC)C(=O)OCC)C(=O)OCC (stereo unspecified) | -20.4% | – | –
CCN(CC(=O)NCc1ccc(Cl)cc1)C(=O)CCOc1ccccc1C | 145% | – | –
C/C(=N\NC(=O)C(=O)Nc1cccc(Cl)c1)c1ccncc1 | -14.9% | – | –
O=c1c(Cc2ccc(F)cc2)c(O)ccn1Cc1cccc(Cl)c1 | -78.9% | – | 25.9 µM [falling, partial curve]
COc1ccc(CCNC(=O)CCCOc2ccc(C)cc2)cc1OC | -50% | 29.1 µM [falling, single point] | 0.0058 µM [falling, full curve, poor fit]
CCN(Cc1ccc2c(c1)OCO2)C(=O)CSc1ncnc2sccc12 | -7.51% | – | –
Clc1ccc(Cn2ncc3c(N4CCCCC4)ncnc32)c(Cl)c1 | 61.4% | – | 11.6 µM [rising, partial curve, poor fit]
Cc1c(C(=O)OC(C)CCN(C)C)oc2ccccc12 (stereo unspecified) | -29.3% | 3.26 µM [falling, full curve, poor fit] | 2.91 µM [falling, full curve, poor fit]
CC1=C(C(=O)OC(C)C)C(/C=C/c2ccccc2)NC(=O)N1 (stereo unspecified) | 33.9% | – | 3.66 µM [rising, full curve, poor fit]
O=S(Cc1cc(Sc2ccccc2)nc(-c2ccccc2)n1)c1ccccc1 (stereo unspecified) | -16.8% | 6.51 µM [rising, single point] | –
CN(C)S(=O)(=O)c1ccc(-c2csc(N/N=C/c3ccc(O)cc3)n2)cc1 | -25% | 32.6 µM [falling, single point] | –
CCN1CCN(c2cc(C)c3cc(NC(=O)c4cc(OC)cc(OC)c4)ccc3n2)CC1 | – | 0.13 µM [rising, full curve, poor fit] | 0.103 µM [rising, full curve, poor fit]
C=C(C)CSc1nnc2n(C)c(=O)c3c4c(sc3n12)CCC4 | 10.7% | 1.3 µM [rising, full curve] | –
